According to PubChem BioAssay AID504467 (National Center for Advancing Translational Sciences (NCATS), 2011):
Out of some 330,000 compounds screened, about 7,700 (2.3%) were called active. This list was built around the results that the source calls inconclusive (neither active nor inactive); the mix of calls is not that of the screen. Calls follow the shape of the dose curve; as a rule, active = well fitted inhibition curve with a large enough effect; inconclusive = small, poorly fitted or top-dose-only effect, or effect the other way; inactive = flat fitted curve, though single readings scatter. Potencies of inconclusive entries are doubtful fits and often do not repeat.

Test: qHTS screen for small molecules that inhibit ELG1-dependent DNA repair in human embryonic kidney (HEK293T) cells expressing luciferase-tagged ELG1; also: nearly all actives have a fitted effect of over 55% in size
Conditions: HEK293T ELG1-luciferase reporter, luminescence, 16 h, DNA damage induced by 5-fluorouridine; series mostly up to 46.1 µM
Outline: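 Cells (2,000 per well) received 5-fluorouridine plus test compound or DMSO and were incubated 16 hr at 37 °C, 5% CO2. Luciferase activity was read by luminescence 30 min after ONE-Glo addition; signal suppression marked inhibition of damage-induced ELG1 function.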
Potency is read from the fitted curve at half-maximal effect.

Structure (SMILES) | Potency
CC(=O)c1sc(NC(=O)c2ccc(C(C)(C)C)cc2)nc1C | inconclusive: 2.59 µM [activator, full curve]
CCC1CCc2c(sc(NC(=O)c3cnccn3)c2C(N)=O)C1 (configuration not stated) | inconclusive: 6.51 µM [activator, full curve]
CC1Cc2cc(/C(O)=C3/C(=O)C(=O)N(CCCn4ccnc4)C3c3cccc([N+](=O)[O-])c3)ccc2O1 (configuration not stated) | inconclusive: 11.6 µM [activator, partial curve, poor fit]
O=C(CSc1nnc(CNC(=O)c2c(F)cccc2F)o1)NCc1ccc(F)cc1 | inconclusive: 32.6 µM [activator, partial curve, poor fit]
COc1cc2c(c(OC)c1OC)C(c1ccc3c(c1)OCO3)CC(=O)O2 (configuration not stated) | inconclusive: 23.1 µM [activator, single point]
COc1ccc(C)cc1S(=O)(=O)Nc1ccc(-n2c(C)nc3ccccc3c2=O)cc1 | inconclusive: 14.6 µM [inhibitor, single point]
O=C(NC1CC1)c1cccc(NC(=O)c2cn3ccccc3n2)c1 | inconclusive: 2.59 µM [activator, full curve]
CN(Cc1cccc(Cl)c1Cl)C(=O)c1cccc(S(=O)(=O)N2CCN(Cc3ccccc3)CC2)c1 | inconclusive: 5.8 µM [inhibitor, full curve]
O=c1c2cc(-c3ccccc3)sc2nc2n1N=C(c1ccccc1)CS2 | inconclusive: 4.11 µM [activator, partial curve]
COCCNCC(=O)N1CCCCCC1 | inactive
Cc1ccccc1NC(=O)Cc1nc(CSc2nnc(-c3ccc4c(c3)OCO4)o2)cs1 | inconclusive: 29.1 µM [activator, partial curve, poor fit]
COc1cc(CC(=O)Nc2nc(C)cs2)cc(OC)c1OC | active: 14.6 µM
Cc1ccc(-n2c(SCC(=O)Nc3ccc(N4CCOCC4)cc3)nc3ccccc3c2=O)cc1 | inconclusive: 29.1 µM [inhibitor, single point]
O=[N+]([O-])c1ccc(N/N=C\c2cccnc2)nc1 | inconclusive: 20.6 µM [activator, single point]
CCOc1ccc2nc(NC(=O)C3=NNC(=O)CC3)sc2c1 | inconclusive: 20.6 µM [activator, partial curve]
Cc1ccc(C(=O)NNC(=O)c2cc(OCC(F)(F)F)ccc2OCC(F)(F)F)cc1 | inconclusive: 7.31 µM [inhibitor, partial curve]
CC1CCN(Cc2c(O)ccc3c(=O)c(-c4nc5ccccc5s4)c(N)oc23)CC1 | inactive
COc1cccc(C(=O)NC2CCCC2)c1 | inconclusive: 18.3 µM [activator, single point]
Cc1ccc(-c2c(C(=O)N/N=C/C3CC=CCC3)nnn2-c2nonc2N)cc1 (configuration not stated) | inconclusive: 32.6 µM [activator, partial curve, poor fit]
COCCCNC(=S)N/N=C/c1ccc(N(C)C)cc1Cl | inconclusive: 8.2 µM [activator, partial curve, poor fit]
COc1ccc(-c2nnc3ccc(SCC(=O)Nc4nc5ccccc5s4)nn23)cc1OC | active: 0.517 µM
Cc1ccc(Oc2ccc(Cl)cc2N)cc1 | inconclusive: 18.3 µM [activator, single point]
COc1cc(CN2CCC(C(=O)NCCC(C)C)CC2)ccc1OCc1ccccc1 | inconclusive: 18.3 µM [activator, single point]

Structure (SMILES) | Potency
CCCc1cc(C(=O)Nc2ccc(C(=O)c3ccc(C)cc3)cc2)n(C)n1 | inconclusive: 11.6 µM [inhibitor, partial curve]
Cc1cc(=O)[nH]c2c(C)cc(S(=O)(=O)N3CCCCC3)cc12 | inconclusive: 18.3 µM [activator, partial curve]
COc1ccc(C(=O)Nc2ccc(-c3nnn(CC(=O)N4CCN(C(=O)c5ccco5)CC4)n3)cc2)cc1 | inconclusive: 16.4 µM [inhibitor, partial curve, poor fit]
COc1ccccc1N(CC(=O)N(c1ccccc1)C(C)C)S(=O)(=O)c1cccs1 | inconclusive: 29.1 µM [inhibitor, single point]
NC(=O)c1ccc(-n2nnnc2SCC(=O)Nc2ccccc2-c2ccccc2)cc1 | inconclusive: 29.1 µM [inhibitor, single point]
O=C(NNC1=NCCCCC1)c1cccc([N+](=O)[O-])c1 | inactive
NS(=O)(=O)c1cccc(NC(=O)CCS(=O)(=O)c2ccc(Cl)cc2)c1 | inactive
N/C(CN1CCCC1=O)=N\OC(=O)c1ccccc1Cl | inconclusive: 16.4 µM [activator, partial curve]
COc1cccc(NC(=O)/C=C/c2ccc([N+](=O)[O-])cc2)c1 | inconclusive: 23.1 µM [activator, partial curve]
Cc1cc(C)nc(Nc2n[nH]c(-c3cccc4ccccc34)n2)n1 | inconclusive: 25.9 µM [activator, partial curve, poor fit]
CN(CC(=O)Nc1ccccc1Cl)C(=O)c1cccc(S(=O)(=O)N2CCN(Cc3ccccc3)CC2)c1 | inconclusive: 7.3 µM [inhibitor, single point]
COc1ccc(CN2C(=O)CCCc3ccccc32)cc1 | inactive
CC(C)CN(C(=O)CN1C(=O)NC(c2ccccc2)(c2ccccc2)C1=O)C1CCS(=O)(=O)C1 (configuration not stated) | inactive
Cc1cccc(N/C(N)=N/c2nc(CSc3ccc(Cl)cc3)cc(=O)[nH]2)c1 | inconclusive: 20.6 µM [activator, partial curve]
Cc1ccc(C(=O)NC(=S)Nc2ccccc2N2CCOCC2)cc1C | inactive
CN(C)c1ccc(-c2noc(C3CCN(S(=O)(=O)c4cccc(Cl)c4)CC3)n2)cc1 | inconclusive: 18.4 µM [inhibitor, partial curve]
O=C(Nc1ccncc1)c1ccc([N+](=O)[O-])cc1Cl | inconclusive: 10.3 µM [inhibitor, partial curve]
O=c1[nH]cc(N=Cc2cc([N+](=O)[O-])ccc2O)c(=O)[nH]1 | inactive
CN1CCN(CCC(=O)N/N=C/c2cc([N+](=O)[O-])ccc2O)CC1 | inactive
CN(c1ccccc1)c1nc(N)c([N+](=O)[O-])c(Nc2ccc(F)cc2)n1 | inconclusive: 25.9 µM [activator, single point]
COc1ccc(-c2nn(C)c3sc(C(=O)NCc4ccco4)cc23)cc1OC | inactive
NS(=O)(=O)c1cc(C(=O)OCC(=O)Nc2ccc3c(c2)OCO3)ccc1Cl | inactive
O=C(Nc1ccc(Br)c(C(F)(F)F)c1)c1ccc(C(F)(F)F)cc1 | inconclusive: 29.1 µM [inhibitor, single point]

Structure (SMILES) | Potency
COc1ccc(N(C(C)C(=O)N2CCC(Cc3ccccc3)CC2)S(C)(=O)=O)cc1 (configuration not stated) | inconclusive: 2.91 µM [inhibitor, full curve]
COCc1[nH]c(=S)[nH]c(=O)c1C | inactive
O=C(COc1ccccc1)Nc1cccc(-c2nc3cc4ccccc4cc3[nH]2)c1 | inconclusive: 0.0517 µM [activator, full curve, poor fit]
COc1cccc(N2CCN(CC(=O)c3c(C)[nH]c4ccccc34)CC2)c1 | inconclusive: 18.4 µM [inhibitor, single point]
CCOc1ccc(S(=O)(=O)N2CCCC(C(=O)NCc3ccncc3)C2)cc1 (configuration not stated) | inconclusive: 32.6 µM [inhibitor, partial curve, poor fit]
CC(C)(C)c1ccc(C(=O)Nc2cccc(-n3cnnn3)c2)cc1 | inconclusive: 29.1 µM [inhibitor, single point]
Cc1ccc(OC(C)C(=O)N=Nc2c(O)[nH]c3ccc([N+](=O)[O-])cc23)cc1 (configuration not stated) | inactive
ClC(=C\c1ccccc1)/C=N/N1CCN(c2ccccn2)CC1 | inconclusive: 10.3 µM [activator, partial curve]
O=c1c2[nH]c3ccccc3c2ncn1Cc1ccco1 | inconclusive: 18.4 µM [activator, single point]
CCn1c(-c2ccccc2)c(C(=O)CC#N)c2ccccc21 | inconclusive: 20.6 µM [inhibitor, single point]
CCN(CC(=O)NC(C)(C)C)C(=O)C(c1ccccc1)c1ccccc1 | inactive
Cc1ccc(S(=O)(=O)CC(=O)Nc2ccccn2)cc1 | inactive
Nc1c(S(=O)(=O)c2cccc(Cl)c2)c2nc3ccccc3nc2n1/N=C/c1ccc(O)c(O)c1 | inconclusive: 10.3 µM [inhibitor, partial curve]
C=CCNC(=O)c1ccccc1NC(=O)COc1ccccc1 | inconclusive: 20.6 µM [inhibitor, single point]
CCn1c(=O)cc(OCC(=O)N2CCCCCC2)c2ccccc21 | inconclusive: 14.6 µM [activator, partial curve]
Cc1ccccc1C(=O)N1CCC(C(=O)Nc2ccc(S(=O)(=O)N(C)C(C)C)cc2)CC1 | active: 16.4 µM
O=[N+]([O-])c1cccc(-c2nnc(-c3ccccc3F)o2)c1 | inconclusive: 16.4 µM [activator, partial curve]
Cc1nn(C(=O)c2cccs2)c(N)c1-c1ccccc1 | inconclusive: 11.6 µM [activator, partial curve]
O=C(Nc1ccc(F)cc1)c1cccnc1 | inactive
c1ccc2[nH]c(CCCc3nc4ccccc4[nH]3)nc2c1 | inactive
O=[N+]([O-])c1nn(-c2ccc(Cl)cc2)n(O)c1=NCc1ccccc1 | inconclusive: 23.1 µM [activator, single point]

By substructure, the entries above containing a furan ring, fused or not.
Structure (SMILES) | Potency
COc1ccc(C(=O)Nc2ccc(-c3nnn(CC(=O)N4CCN(C(=O)c5ccco5)CC4)n3)cc2)cc1 | inconclusive: 16.4 µM [inhibitor, partial curve, poor fit]
COc1ccc(-c2nn(C)c3sc(C(=O)NCc4ccco4)cc23)cc1OC | inactive
O=c1c2[nH]c3ccccc3c2ncn1Cc1ccco1 | inconclusive: 18.4 µM [activator, single point]
